Measured values reported in US20200129630A1, “METHODS FOR TREATING CANCER” (BicycleRD Limited, priority 2018, published 2020).
Not every detail of the peptide structures is certain; ends, links or a residue may be inferred. For at least one compound, name, drawing or mass did not settle the structure. Marks after values point to notes of the source that are not given here. Numbered stars: 1 amine (or outer) side, 2 acyl side, 3 side chain; on linkers, the order of the positions; unused ones are H or OH. Bridge positions count the residues as written; N and C are the ends. Square brackets hold non-standard residues; d marks the D form. Peptide text beside a SMILES is read from it. * marks the point of attachment. X1 = COc1cc2cc(c1Cl)N(C)C(=O)C[C@H](OC(=O)[C@H](C)N(C)C(=O)CCSSC(C)CCC(=O)*)[C@]1(C)O[C@H]1[C@H](C)[C@@H]1C[C@@](O)(NC(=O)O1)[C@H](OC)/C=C/C=C(\C)C2; 1Nal = N[C@@H](Cc1cccc2ccccc12)C(=O)O; TBMB = c1c(C[*:1])cc(C[*:3])cc1C[*:2]; Tle = CC(C)(C)[C@H](N)C(=O)O; βAla = NCCC(=O)O; Sar = CNCC(=O)O

Columns and labels:
LU-01-0046 NSCLC PDX = assay: NSCLC PDX LU-01-0046 (high MT1-MMP expression); format: in vivo, Mice; conditions: Day 21-27
[1] = system: MT1 MMP-expressing NSCLC PDX models; assay: MT1-MMP-expressing NSCLC PDX models, docetaxel-sensitive and -resistant; format: in vivo
Excerpt: Furthermore, BT1718 produced an anti-tumor effect against MT1 MMP-expressing NSCLC PDX models irrespective of their sensitivity to the SOC chemotherapeutic docetaxel. […] The PDX models confirm that MT1-MMP expression is necessary for BT1718 anti-tumor activity.

LU-01-0486 NSCLC PDX = assay: NSCLC PDX LU-01-0486 (low MT1-MMP expression); format: in vivo, Mice; conditions: for TGI: LU-01-0486, Day 21-27
UV absorbance = format: physicochemical; conditions: between 290-300 nm
HCT-15 xenograft = HCT-15 xenograft anti-tumor activity; format: in vivo, Female BALB/c mice
NCI-H1975 xenograft = NCI-H1975 xenograft anti-tumor activity; format: in vivo, Female BALB/c mice
[2] = system: MT1-MMP-expressing tumor cells; assay: Cell killing, MT1-MMP-expressing vs non-expressing tumor cells; format: cell-based
NCI-H292 xenograft = NCI-H292 xenograft anti-tumor activity; format: in vivo, Female BALB/c mice
RPMI2650 xenograft = RPMI2650 xenograft anti-tumor activity; format: in vivo, Female BALB/c mice
HCC-1806 xenograft = HCC-1806 xenograft anti-tumor activity; format: in vivo, Female BALB/c mice
EBC-1 xenograft = EBC-1 xenograft anti-tumor activity; format: in vivo, Female BALB/c mice; conditions: for anti-tumor effect: EBC-1 lung tumor xenografts
[3] = 1 mg/kg (3 mg/m^2) twice per week
[4] = 3 mg/kg (9 mg/m^2) twice per week
[5] = 10 mg/kg (30 mg/m^2) twice per week

COc1cc2cc(c1Cl)N(C)C(=O)C[C@H](OC(=O)[C@H](C)N(C)C(=O)CCSSC(C)CCC(=O)NCCC(=O)N(C)CC(=O)N(C)CC(=O)N(C)CC(=O)N(C)CC(=O)N(C)CC(=O)N(C)CC(=O)N(C)CC(=O)N(C)CC(=O)N(C)CC(=O)N(C)CC(=O)N[C@@H](C)C(=O)N[C@H]1CSCc3cc4cc(c3)CSC[C@H](NC(=O)[C@@H](C)NC(=O)[C@H](Cc3cccc5ccccc35)NC(=O)[C@H](CCC(=O)O)NC(=O)[C@H](CC(N)=O)NC(=O)[C@@H](C)NC1=O)C(=O)N[C@@H](CCC(=O)O)C(=O)N[C@@H](CC(=O)O)C(=O)N[C@@H](Cc1ccccc1)C(=O)N[C@@H](Cc1ccc(O)cc1)C(=O)N[C@@H](CC(=O)O)C(=O)N[C@@H](C(C)(C)C)C(=O)N[C@H](C(N)=O)CSC4)[C@]1(C)O[C@H]1[C@H](C)[C@@H]1C[C@@](O)(NC(=O)O1)[C@H](OC)/C=C/C=C(\C)C2 (stereo partly shown) [BT1718] ({X1-βAla}-[Sar][Sar][Sar][Sar][Sar][Sar][Sar][Sar][Sar][Sar]AC[dA]NE[1Nal][dA]CEDFYD[Tle]C-NH2; linker 12-18-25 via TBMB (inferred))
TGI (LU-01-0046 NSCLC PDX; 3 mg/kg twice weekly): 91% | TGI (LU-01-0046 NSCLC PDX; 10 mg/kg twice weekly): 105% | anti-tumor effect ([1]; 3 mg/kg, 9 mg/m^2 twice weekly): SD in both models | anti-tumor effect ([1]; 10 mg/kg (30 mg/m^2) twice weekly): complete regression of tumors in both models | TGI (LU-01-0486 NSCLC PDX; 3 mg/kg twice weekly): 11% | TGI (LU-01-0486 NSCLC PDX; 10 mg/kg twice weekly): 17% | anti-tumor effect (LU-01-0486 NSCLC PDX; NSCLC PDX models that did not express high levels of MT1-MMP): no anti-tumor activity | molar extinction coefficient (UV absorbance): > 1000 L/mol/cm | Description of anti-tumor effect (HCT-15 xenograft): Tumor progression at all doses | TGI % on Day 14 (HCT-15 xenograft; [3]): −0.8% | TGI % on Day 14 (HCT-15 xenograft; [4]): 5% | TGI % on Day 14 (HCT-15 xenograft; [5]): 33% | TGI % on Day 14 (NCI-H1975 xenograft; [3]): 3% | TGI % on Day 14 (NCI-H1975 xenograft; [4]): 11% | TGI % on Day 14 (NCI-H1975 xenograft; [5]): 81*** % | Description of anti-tumor effect (NCI-H1975 xenograft; 10 mg/kg by Day 25): Near complete regressions at | cell killing activity relative to cells which did not express MT1-MMP [2]: at least 2 orders of magnitude | cell killing activity ([2]; MT1-MMP-expressing tumor cells): nM IC50s range | TGI % on Day 14 (NCI-H292 xenograft; [3]): 21% | TGI % on Day 14 (NCI-H292 xenograft; [4]): 41% | TGI % on Day 14 (NCI-H292 xenograft; [5]): 102*** % | Description of anti-tumor effect (NCI-H292 xenograft; 10 mg/kg by Day 30): Near complete regressions at | TGI % on Day 14 (RPMI2650 xenograft; [3]): 4% | TGI % on Day 14 (RPMI2650 xenograft; [4]): 20% | TGI % on Day 14 (RPMI2650 xenograft; [5]): 102*** % | Description of anti-tumor effect (RPMI2650 xenograft; by Day 14): Stable disease at 10 mg/kg by | TGI % on Day 14 (HCC-1806 xenograft; [3]): 9% | TGI % on Day 14 (HCC-1806 xenograft; [4]): 69** % | TGI % on Day 14 (HCC-1806 xenograft; [5]): 111*** % | Description of anti-tumor effect (HCC-1806 xenograft; by Day 18): Complete regressions at 10 mg/kg | Description of anti-tumor effect (EBC-1 xenograft; EBC-1): Complete regressions at 10 mg/kg | TGI % on Day 14 (EBC-1 xenograft; EBC-1, 1 mg/kg (3 mg/m^2) three per week): 38% | TGI % on Day 14 (EBC-1 xenograft; EBC-1, 3 mg/kg (9 mg/m^2) three per week): 91*** % | TGI % on Day 14 (EBC-1 xenograft; EBC-1, 10 mg/kg (30 mg/m^2) three per week): 114*** % | anti-tumor effect (EBC-1 xenograft; 3 mg/kg twice weekly for two weeks): significant reduction in tumor growth | anti-tumor effect (EBC-1 xenograft; 10 mg/kg twice weekly for two weeks): complete regressions | minimum effective dose (EBC-1 xenograft; EBC-1 model, three times a week (slowed tumor growth)): 1 mg/kg
